The data set in a line: Washfastness (AATCC TM 61-2A) of disperse-dyed polyester fabric after afterclearing. Conditions: AATCC Chromatic Transference Scale 1~5, 1 heaviest color transfer, 5 no color transfer, afterclearing 20 minutes at 70° C.

As for `[Na+].[OH-]` [sodium hydroxide], the “staining evaluation grade (Acetate)” value (Acetate) is 3.5. In addition, the “staining evaluation grade (Nylon)” value (Nylon) was 3.5. For the same compound, under “silk”, the “staining evaluation grade (silk)” value is given as 3.0.

These data come from patent publication US6890361B2, “Modification of printed and dyed materials” (Novozymes North America, Inc., priority 2001, dated 2005).
